PubChem BioAssay AID743121 | NCATS – 2013

Screen: 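Partners whose loss is lethal together with topoisomerase I blockade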 (primary screen)
System: MDA-MB-231 cells, a human breast cancer line
Knock-down reagent: single siRNA against human genes, 20 nM siRNA (0.8 pmol per well)
Time to read-out: 120 h (drug added 48 h after transfection, read 72 h later)
Treatment: camptothecin 20 nM (about EC30) for 72 h; vehicle 0.1% DMSO in parallel plates
Detection: 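Cell viability by ATP luminescence (CellTiter-Glo) as % of non-targeting siRNA wells, and the log2 ratio of viability without drug over viability with camptothecin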
Scale: log2 vehicle/camptothecin viability: higher = stronger sensitisation to camptothecin; viability with camptothecin: higher = more viable cells
Call rule: 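Active genes have an RSA gene-level p-value below 0.001, computed from the ratios of their separate siRNAs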
This is one part, drawn at random, of about 26,000 reagents tested. Of all reagents, 167 (0.63%) are marked active. 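Calls are per gene from RSA p-values that are not deposited; an individual active-marked siRNA can sensitise only weakly.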 Reagents against one gene are numbered here. Further read-outs or replicates are left out here.

KLK1 (kallikrein 1) #1 | log2 vehicle/camptothecin viability = -0.177; viability with camptothecin (% of control) = 125; call = inactive
KLK1 (kallikrein 1) #2 | log2 vehicle/camptothecin viability = -0.437; viability with camptothecin (% of control) = 84; call = inactive
KLK1 (kallikrein 1) #3 | log2 vehicle/camptothecin viability = -0.439; viability with camptothecin (% of control) = 71.5; call = inactive
MTMR14 (myotubularin related protein 14) #1 | log2 vehicle/camptothecin viability = 0.0419; viability with camptothecin (% of control) = 96.6; call = inactive
MTMR14 (myotubularin related protein 14) #2 | log2 vehicle/camptothecin viability = -0.0721; viability with camptothecin (% of control) = 81.4; call = inactive
MTMR14 (myotubularin related protein 14) #3 | log2 vehicle/camptothecin viability = -0.0403; viability with camptothecin (% of control) = 88; call = inactive
MTMR14 (myotubularin related protein 14) #4 | log2 vehicle/camptothecin viability = 1.1; viability with camptothecin (% of control) = 26.6; call = inactive

As entered above:
Value for KLK1 (kallikrein 1) #3 under “call”: inactive
For “viability with camptothecin (% of control)”, MTMR14 (myotubularin related protein 14) #3 has 88

The listing continues:
TRAP1 (TNF receptor associated protein 1) #1 | log2 vehicle/camptothecin viability = 0.701; viability with camptothecin (% of control) = 7.34; call = inactive
TRAP1 (TNF receptor associated protein 1) #2 | log2 vehicle/camptothecin viability = 0.41; viability with camptothecin (% of control) = 49.6; call = inactive
TRAP1 (TNF receptor associated protein 1) #3 | log2 vehicle/camptothecin viability = -0.371; viability with camptothecin (% of control) = 37.7; call = inactive
MBL2 (mannose binding lectin 2) #1 | log2 vehicle/camptothecin viability = -0.225; viability with camptothecin (% of control) = 117; call = inactive
MBL2 (mannose binding lectin 2) #2 | log2 vehicle/camptothecin viability = -0.186; viability with camptothecin (% of control) = 57.6; call = inactive
MBL2 (mannose binding lectin 2) #3 | log2 vehicle/camptothecin viability = 0.284; viability with camptothecin (% of control) = 61.4; call = inactive
TICAM2 (TIR domain containing adaptor molecule 2) #1 | log2 vehicle/camptothecin viability = -0.563; viability with camptothecin (% of control) = 33.2; call = inactive
TICAM2 (TIR domain containing adaptor molecule 2) #2 | log2 vehicle/camptothecin viability = 0.298; viability with camptothecin (% of control) = 37.3; call = inactive
TICAM2 (TIR domain containing adaptor molecule 2) #3 | log2 vehicle/camptothecin viability = -0.0725; viability with camptothecin (% of control) = 30.3; call = inactive
TICAM2 (TIR domain containing adaptor molecule 2) #4 | log2 vehicle/camptothecin viability = -0.407; viability with camptothecin (% of control) = 84.3; call = inactive
